The full ranking holds about 3,200 compounds; the median of “TSA(without NAD+) / Primary screening (TSA) / delta Tm (K)” is about -0.07, and the highest 2% start at about 0.37. The list shows a part of the results. Peptide text beside a SMILES is read from it.
target: NAD-dependent deacetylase Sirtuin 1 (human, UniProt Q96EB6); assay: primary screen, delta tm; design: single well (n = 1); details: 10 µM
In short: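 Thermal shift of Sirtuin 1 measured without NAD+, compound at 10 µM (n = 1); value is ΔTm, with hits defined as ΔTm > 0.45 K or < −1.5 K. Hits retested at 5, 10, 20 µM (n = 4) and counterscreened on bovine carbonic anhydrase and ABL1 SH2 domain.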

By UniProt entry, the sequences of proteins in these tests, tags left out. Residues count along the entry.
UniProt Q96EB6, 2-747 limits assumed: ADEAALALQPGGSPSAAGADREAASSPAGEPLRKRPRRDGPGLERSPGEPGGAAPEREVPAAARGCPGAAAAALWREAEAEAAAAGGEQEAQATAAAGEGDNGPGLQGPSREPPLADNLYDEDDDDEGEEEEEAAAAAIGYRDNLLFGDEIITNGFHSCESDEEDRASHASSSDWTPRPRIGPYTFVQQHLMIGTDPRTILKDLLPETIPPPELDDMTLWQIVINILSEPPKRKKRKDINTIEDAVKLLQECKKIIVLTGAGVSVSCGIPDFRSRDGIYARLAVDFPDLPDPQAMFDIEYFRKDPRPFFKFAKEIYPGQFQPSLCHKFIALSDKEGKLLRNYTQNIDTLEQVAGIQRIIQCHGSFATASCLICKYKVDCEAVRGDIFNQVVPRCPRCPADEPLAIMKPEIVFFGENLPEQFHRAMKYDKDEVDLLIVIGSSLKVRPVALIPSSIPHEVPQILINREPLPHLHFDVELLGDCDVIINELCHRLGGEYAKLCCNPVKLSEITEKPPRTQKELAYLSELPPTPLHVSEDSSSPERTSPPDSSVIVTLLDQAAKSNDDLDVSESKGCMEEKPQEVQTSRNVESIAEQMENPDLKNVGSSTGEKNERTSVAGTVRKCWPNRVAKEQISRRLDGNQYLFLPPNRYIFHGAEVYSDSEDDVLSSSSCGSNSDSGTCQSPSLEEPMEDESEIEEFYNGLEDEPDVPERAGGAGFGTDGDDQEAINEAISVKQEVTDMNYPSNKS

Row | Structure (SMILES) | TSA(without NAD+) / Primary screening (TSA) / delta Tm (K)
1 | COc1cc(C(=O)N(C)Cc2ccc(C(N)=O)cc2)cc(OC)c1OC | 0.15
2 | COC(=O)CCC(NC(=O)OC(C)(C)C)C(=O)Nc1cccc(C(N)=O)c1C (stereo not drawn) | -0.18
3 | CCSCCOC(=O)c1ccc2[nH]c(C(F)F)nc2c1 | -0.04
4 | CCCC(=O)CN | -0.14
5 | CCCOc1ccc(C(=O)C2=C(O)C(=O)N(CCCN3CCOCC3)C2c2cccnc2)cc1 (stereo not drawn) | -0.02
6 | O=C1CCCN1c1cccc(NS(=O)(=O)c2ccc3nc[nH]c(=O)c3c2)c1 | 0.09
7 | CC(C)NCCOCCN | -0.08
8 | COc1ccc(N(C)S(=O)(=O)c2cccc(C(=O)Nc3ncc(C(N)=O)s3)c2)cc1 | 0.06
9 | c1ccc(CN2CCCC2)c(CNc2ncnc3sccc23)c1 | 0.06
10 | CC(=O)N1CCCc2cc(S(=O)(=O)N3c4ccccc4CCC3C)ccc21 (stereo not drawn) | -0.18
11 | Oc1ccccc1/C=N/c1ccccc1O | -0.13
12 | O=C(O)c1nn(Cc2ccccc2)c(=O)c2ccccc12 | -0.28
13 | Cc1nc(S)sc1CC(=O)Nc1ccc(F)cc1 | -0.11
14 | COc1cc(C(=O)Nc2cccc(S(=O)(=O)NCc3ccco3)c2)ccc1OCc1ccccc1 | 0.03
15 | COc1cccc(C(=O)C2=C(O)C(=O)N(CCCN3CCOCC3)C2c2ccccc2F)c1 (stereo not drawn) | -0.17
16 | O=c1[nH]c(S)nc2c1cnn2-c1ccccc1 | -0.21
17 | CC(CNCCS(=O)(=O)C(C)(C)C)c1ccccc1 (stereo not drawn) | -0.04
18 | COc1ccc(NC(=O)C(=O)c2c(C)nn(-c3ccccc3)c2C)cc1OCc1cn2ccccc2n1 | -0.07
19 | CN(C)CCOc1ccc(C(N)=S)cc1 | -0.17
20 | O=C(NCc1cccc(NC(=O)C2CC2)c1)c1ccc(C(=O)c2ccccc2)cc1 | -0.11
21 | CC(C)C(NS(=O)(=O)/C=C/c1ccccc1)C(=O)O (stereo not drawn) | 0.05
22 | COc1ccccc1N1C(=O)CC(Nc2ccc(C(=O)O)cc2)C1=O (stereo not drawn) | -0.05
23 | NC(=O)c1ccnc(N2CCN(CCO)CC2)c1 | 0.02
24 | C=CCNc1ccc2nnc(C(F)(F)F)n2n1 | -0.12

Reprinted at random: two records from the list
Row | Structure (SMILES) | TSA(without NAD+) / Primary screening (TSA) / delta Tm (K)
13 | Cc1nc(S)sc1CC(=O)Nc1ccc(F)cc1 | -0.11
24 | C=CCNc1ccc2nnc(C(F)(F)F)n2n1 | -0.12

(continued)

Row | Structure (SMILES) | TSA(without NAD+) / Primary screening (TSA) / delta Tm (K)
25 | CN(c1ccccc1)S(=O)(=O)c1cccc(NCC(=O)Nc2ccc(Br)cc2)c1 | -0.08
26 | Cc1ccc(N(C)S(=O)(=O)c2cccc(C(=O)Nc3ccccc3C(F)(F)F)c2)cc1 | -0.13
27 | Cc1onc(-c2ccccc2)c1-c1nnc(CN2C(=O)c3ccc([N+](=O)[O-])cc3C2=O)o1 | -0.08
28 | CCC(N)C(N)=O (stereo not drawn) | -0.22
29 | Cn1c(=O)c2c(ncn2CC(=O)OCc2cc(=O)n3c(n2)sc2ccccc23)n(C)c1=O | -0.05
30 | O=C(CSc1nnc(NCc2ccco2)s1)N1CCN(Cc2cccc3ccccc23)CC1 | -0.13
31 | CN(c1ccccc1)S(=O)(=O)c1cccc(C(=O)Nc2ccc(Br)cc2Cl)c1 | 0.06
32 | CCc1ccc2c(COC(=O)c3cccc(S(=O)(=O)N(C)c4ccccc4)c3)cc(=O)oc2c1 | -0.08
33 | O[C@@H]1CCN(c2ncnc3ccsc23)C1 | -0.02
34 | COc1cccc(C2=N/C(=C/c3cccnc3)C(=O)O2)c1 | -0.02
35 | O=C(CSc1nnc(NCc2ccco2)s1)Nc1ccc(N2CCCC2=O)cc1 | -0.23
36 | COc1ccnc(N(C)C[C@H](O)CO)n1 | -0.12
37 | COc1cc(-c2nc(-c3ccccc3)c(-c3ccccc3)[nH]2)ccc1OS(=O)(=O)c1ccc(C)cc1 | 0.32
38 | Cn1c(=O)c2ccccc2n2c(COC(=O)Cn3nc(-c4ccc(F)cc4)oc3=O)nnc12 | -0.13
39 | C=CCCCCN | 0.06
40 | Cc1cc(CSc2nc3ccccc3[nH]2)no1 | 0.07
41 | O=C(Nc1cc2c(=O)[nH]cnc2cc1F)c1cccc(Cl)c1F | 0.09
42 | NC(=O)c1ccc(COC(=O)c2ccccc2NC(=O)c2ccco2)cc1 | -0.15
43 | CC(N)(CN)C1CC1 (stereo not drawn) | 0.15
44 | CC1(c2cccc(NC(=O)c3ccc4c(c3)CCC4)c2)NC(=O)NC1=O (stereo not drawn) | -0.04
45 | Cc1ccccc1OC(=O)C1CCN(S(=O)(=O)c2cc(C(N)=O)n(C)c2)CC1 | -0.07
46 | Cc1cccc(Cl)c1OCC(=O)NCC(F)(F)F | -0.02
47 | c1nc(N2CCCC3(C2)OCCO3)c2sccc2n1 | -0.03
48 | Cc1ccc(C)n1-c1sc2c(c1C#N)CCCC2 | -0.17

An excerpt from above in order of length of the SMILES, low to high:
Row | Structure (SMILES) | TSA(without NAD+) / Primary screening (TSA) / delta Tm (K)
7 | CC(C)NCCOCCN | -0.08
6 | O=C1CCCN1c1cccc(NS(=O)(=O)c2ccc3nc[nH]c(=O)c3c2)c1 | 0.09
15 | COc1cccc(C(=O)C2=C(O)C(=O)N(CCCN3CCOCC3)C2c2ccccc2F)c1 (stereo not drawn) | -0.17

(list continues)

Row | Structure (SMILES) | TSA(without NAD+) / Primary screening (TSA) / delta Tm (K)
49 | CCOc1nc2cc(C(=O)O[C@H]3CCOC3)ccc2[nH]1 | -0.28
50 | Cc1cc(C)n(CC(=O)N/N=C/c2cn(-c3ccccc3)nc2-c2cc3ccccc3oc2=O)n1 | -0.12
51 | O=C1CN(c2ccc(NC(=O)CCCc3nc4ccccc4[nH]3)cn2)CCN1 | -0.08
52 | COc1ccccc1CC(=O)Nc1cc2c(=O)[nH]cnc2cc1F | -0.03
53 | Cc1ccccc1C(=O)NCC(=O)OC(C)C(=O)NCc1ccco1 (stereo not drawn) | -0.12
54 | O=C1NC(=O)C(=Cc2ccc(-c3ccc(Cl)c(Cl)c3)o2)C(=O)N1 | -0.37
55 | Nc1ccc2c(c1)ncn2-c1ccccc1 | 0.16
56 | CC(c1nc(-c2ccccc2)no1)N1CCN(c2nc(C(F)(F)F)nc3ccccc23)CC1 (stereo not drawn) | 0.29
57 | O=c1cc(COc2cccc([N+](=O)[O-])c2)nc2ccccn12 | -0.13
58 | CC(C)(C)CC(N)CN (stereo not drawn) | -0.32
59 | NCCCCF | -0.23
60 | CC(OC(=O)CCc1nc2ccccc2c(=O)[nH]1)C(=O)NCc1ccco1 (stereo not drawn) | -0.12
61 | CCCCCCOc1ccc(C=C2C(=O)NC(=S)NC2=O)cc1 | 0.12
62 | CC(O)CNc1ncnc2ccsc12 (stereo not drawn) | 0.02
63 | CCC(=O)NN | -0.13
64 | c1ccc2c(c1)oc1c(N3CCN(Cc4cn5ccccc5n4)CC3)ncnc12 | -0.03
65 | Cc1nc(N2CCC(C(N)=O)CC2)c2c3c(sc2n1)CCC3 | 0.07
66 | CCn1c(-c2ccccc2)c(C(=O)CCl)c2ccccc21 | -0.13
67 | CNS(=O)(=O)NCC(=O)O | 0.06
68 | Cc1cc(C(=O)COC(=O)C23CC4CC(CC(C4)C2)C3)c(C)n1Cc1ccc2c(c1)OCO2 | 0.02
69 | COc1ccc(N(C)S(=O)(=O)c2cccc(C(=O)Nc3ccc(Br)cc3)c2)cc1 | 0.36
70 | CC(=O)Nc1ccc(S(=O)(=O)N(C)CC(=O)Nc2ccc(C34CC5CC(CC(C5)C3)C4)cc2)cc1 | -0.07
71 | O=C(Nc1ccc(N2CCN(Cc3ccccc3)CC2)cc1)c1oc2ccccc2c1COc1ccccc1 | -0.18
72 | NC(=O)C1CCCC1Nc1nc(C2CC2)ns1 (stereo not drawn) | -0.02

Row | Structure (SMILES) | TSA(without NAD+) / Primary screening (TSA) / delta Tm (K)
73 | CCCC(O)CN (stereo not drawn) | -0.18
74 | O=C1NC2(CCOc3ccccc32)C(=O)N1Cc1cccc2ccccc12 (stereo not drawn) | -0.08
75 | Cc1cc(C(=O)Nc2ccc3c(c2)OC2(CCCC2)O3)c2ccccc2n1 | 0.02
76 | CN(c1ccccc1C(N)=O)S(=O)(=O)c1cccc(C#N)c1 | -0.14
77 | Cc1ccc(CCC(=O)Nc2cc(C(N)=O)ccc2N2CCCCC2)cc1Cl | 0.09
78 | O=C1NC(=S)NC(=O)C1=Cc1ccc(-c2ccc(SC(F)F)cc2)o1 | -0.34
79 | Cc1ccc2c(COC(=O)C(CCS(C)(=O)=O)NC(=O)c3ccccc3)cc(=O)oc2c1 (stereo not drawn) | -0.23
80 | O=C(CCc1nc2ccccc2o1)N1CCN(C(c2ccc(F)cc2)c2ccc(F)cc2)CC1 | -0.28
81 | COc1cccc(-c2nnc(SC3CCCCC3=O)n2-c2ccccc2)c1 (stereo not drawn) | -0.14
82 | C=CCOc1ccc(C(=O)C2=C(O)C(=O)N(CCCN3CCOCC3)C2c2cccs2)cc1 (stereo not drawn) | -0.13
83 | Cc1cccc(Oc2ccc(NC(=O)c3cncc(Br)c3)cc2)c1 | -0.04
84 | OCCCNc1ccc2nnc(C(F)(F)F)n2n1 | -0.13
85 | NC(=O)C1CCN(c2ncnc3cc(-c4ccc(Cl)cc4)sc23)C1 (stereo not drawn) | -0.03
86 | Cc1nc2c(cnn2-c2ccc(F)cc2)c(=O)[nH]1 | -0.22
87 | Cc1ccc(N(C)S(=O)(=O)c2cccc(C(=O)Nc3ccc4c(c3)C(=O)N(C)C4=O)c2)cc1 | 0.45
88 | Cc1cc(C)c(NCc2cc(=O)n3ccsc3n2)c(Cl)c1 | -0.03
89 | NC(=O)c1ccc(NC(=O)c2sccc2S(=O)(=O)N2CCCCC2)cc1 | -0.03
90 | CC(=O)NCC(=O)NCC(=O)N(C)C (Ac-Gly-Gly-NMe2) | -0.11
91 | CN(c1cccc(Cl)c1)S(=O)(=O)c1cccc(C(=O)Nc2cccc(C#N)c2)c1 | 0.32
92 | CN(C(=O)Cc1cccc2ccccc12)C1C2CC3CC(C2)CC1C3 (stereo not drawn) | -0.22
93 | CC(Oc1ccc2[nH]c3ccccc3c(=O)c2c1)C(=O)NC(=O)NC12CC3CC(CC(C3)C1)C2 (stereo not drawn) | 0.35
94 | O=C(COC(=O)CN1C(=O)C2CCCCC2C1=O)Nc1cc(C(F)(F)F)ccc1Cl (stereo not drawn) | 0.02
95 | COc1ccc(CN(C(=O)COC(=O)c2ccc(C(N)=O)cc2)C2CC2)cc1 | 0.08
96 | O=C1CC(Cc2ccccc2)C(=O)N1 (stereo not drawn) | -0.14
